Results reported in patent US20210348119A1, “COMPOSITIONS AND METHODS FOR CELL CULTURE” (The United States of America as Represented By The …, priority 2018, published 2021).

Test system: H9 cells
Test: qHTS for survival of dissociated H9 cells (CellTiter-Glo, 24 hours after seeding)
Format: cell-based, human
Details: curve class per Huang et al. 2011
Text: FIG. 2 schematically illustrates qHTS procedure.
All the screed compounds were received pre-plated at the pre-determined concentrations. […] Curve classification is explained in Huang et al. “Chemical genomics profiling of environmental chemical modulation of human nuclear receptors” Environ. Health. Perspect.

Molecule | CC (curve class)
CCCCCCCCCCCCCC(=O)O[C@@H]1[C@@H](C)[C@@]2(O)[C@@H](C=C(CO)C[C@]3(O)C(=O)C(C)=C[C@@H]23)[C@@H]2C(C)(C)[C@]12OC(C)=O [Phorbol 12-myristate 13-acetate] | 1
COc1cccc(CNC(=O)Nc2nc(-c3ccncc3)cs2)c1 [1-(3-methoxybenzyl)-3-(4-(pyridin-4-yl)thiazol-2-yl)urea] | 1
Brc1c(Br)c(Br)c2n[nH]nc2c1Br [TBB] | 2
N#Cc1cccc(-c2c[nH]c3ncnc(N4CCOCC4)c23)c1 [PF-06447475] | 3
Cc1c(O)c(O)cc2c1CC=C1[C@@]2(C)CC[C@@]2(C)[C@@H]3C[C@](C)(C(=O)O)CC[C@]3(C)CC[C@]12C [DIHYDROCELASTROL] | 2
Cc1[nH]c2ccccc2c1CCNC(=O)c1cccs1 [CK-636] | 4
Cl.O=c1[nH]ccc2cc(OC3CCNCC3)ccc12 [SAR407899 (hydrochloride)] | 1
c1ccc2c3c([nH]c2c1)CNCC3 [tryptoline] | −1
O=C(Nc1ccc(-c2ccnc(Nc3ccc(N4CCOCC4)cc3)n2)cc1)[C@@H]1CCCN1 [XL-19] | 3
CC1(CCOC2OC(CO)C(O)C(O)C2O)CCC23OC2(C1)C(O)CC1C(C)(C(=O)O)CCCC13C (stereo not shown) [NCGC00380931-01] | 2
C[C@H](NC(=O)C(=O)Nc1ccccc1C(C)(C)C)C(=O)N[C@@H](CC(=O)O)C(=O)COc1c(F)c(F)cc(F)c1F [Emricasan, 3-(2-(2-tert-butylphenylaminooxalyl)aminopropionylamino)-4-oxo-5-(2,3,5,6-tetrafluorophenoxy)pentanoic acid] | 3
Cl.O=c1[nH]c([C@@H]2CCCN2)nc2c1oc1ccc(Cl)cc12 [BMS-863233 (XL-413)] | 2
CNS(=O)(=O)C[C@H]1CC[C@H](N(C)c2ncnc3[nH]ccc23)CC1 [Oclacitinib (PF-03394197), Oclacitinib] | 3
COc1ccccc1-c1c[nH]c2ncc(-c3cncc(C(=O)N(C)C)c3)cc12 [PPY A] | 3
COc1ccc2c(c1)C[C@H](C(=O)Nc1ccc(-c3cn[nH]c3)cc1OCCN(C)C)CO2 [Chroman 1, (3S)—N-{2-[2-(Dimethylamino)ethoxy]-4-(1H-pyrazol-4-yl)phenyl}-6-methoxy-3,4-dihydro-2H-1-benzopyran-3-carboxamide] | 1
CCn1c(-c2nonc2N)nc2cncc(CNC3CCNCC3)c21 [SB-747651-A] | 1
CCn1c(-c2nonc2N)nc2c(C#CCO)ncc(OCCCN)c21 [AKT Kinase Inhibitor] | 4
Cl.Cl.Fc1ccccc1CNCc1ccc(-c2ccnc3[nH]ccc23)cc1 [OXA 06 dihydrochloride] | 1
NC1(Cc2ccc(Cl)cc2)CCN(c2ncnc3[nH]ccc23)CC1 [CCT-128930] | 3
CC1=C(C(=O)Nc2cc3cn[nH]c3cc2F)C(c2ccc(C(F)(F)F)cc2)CC(=O)N1 (stereo not shown) [GSK-429286A] | 1
(−)-Indolactam V | 1
C=C1[C@@H](C)[C@H]2[C@H](Cc3ccccc3)NC(=O)[C@]23OC(=O)/C=C/[C@H](O)CCC[C@@H](C)C/C=C/[C@H]3[C@@H]1O [Cytochalasin B] | 3
CNc1ccc([N+](=O)[O-])c(Nc2ccc3[nH]ncc3c2)n1 [KRIBB11] | 1
O=C(NCc1cccc(O)c1)Nc1nc(-c2ccncc2)cs1 [RKI-1447] | 1
C/C=C/C(=O)C(C)C1=CC(=O)C2=C(OC34CC[C@H](O)C(C)(C)[C@@H]3CC[C@H](C)C4(C)C2)C1=O (stereo partly shown) [podosporin A] | 4

Molecule | CC (curve class)
C[S+]([O-])c1ccc(-c2nc(-c3ccncc3)c(-c3ccc(F)cc3)[nH]2)cc1 (stereo not shown) [SB-203580] | 3
CN1CCN(c2nc(C3=C(c4c[nH]c5ccccc45)C(=O)NC3=O)c3ccccc3n2)CC1 [Sotrastaurin] | 2
Cc1cncc2cccc(S(=O)(=O)N3CCCN(C(=O)CN)C[C@@H]3C)c12 [Glycyl-H-1152] | 1
CC1=NN(c2ccccc2)C(=O)C1 [Edaravone] | 4
Cc1cnc(Nc2ccc(OCCN3CCCC3)cc2)nc1Nc1cccc(S(=O)(=O)NC(C)(C)C)c1 [TG-101348] | 3
CC(C)(C)c1nc(-c2cccc(NS(=O)(=O)c3c(F)cccc3F)c2F)c(-c2ccnc(N)n2)s1 [Dabrafenib] | 2
CC(C)CC(=O)OC1OC=C(CO[C@@H]2O[C@H](CO)[C@@H](O)[C@H](O)[C@H]2O)C2CC(O)C(O)(CO)C12 (stereo partly shown) [NCGC00347879-02] | 4
COC(=O)c1cc(Br)cnc1N1CCC(NC2CCCCC2)C(O)C1 (stereo not shown) [NCGC00386932-01] | −1
CC(N/C(=N\C#N)Nc1ccncc1)C(C)(C)C (stereo not shown) [Pinacidil] | 3
O=S(=O)(c1cccc2cnccc12)N1CCNCC1 [HA-100] | 2
CC1(C)[C@@H](O[C@H]2O[C@H](C(=O)O)[C@@H](O)[C@H](O)[C@H]2O[C@@H]2O[C@H](C(=O)O)[C@@H](O)[C@H](O)[C@H]2O)CC[C@]2(C)[C@H]3C(=O)C=C4[C@@H]5C[C@@](C)(C(=O)O)CC[C@]5(C)CC[C@@]4(C)[C@]3(C)CC[C@@H]12.N [GLYCYRRHIZIC ACID. AMMONIUM SALT] | 2
Clc1ccc(C2(c3ccc(-c4cn[nH]c4)cc3)CCNCC2)cc1 [AT-7867] | 1
CCCCC1C(=O)N(c2ccccc2)N(c2ccc(O)cc2)C1=O (stereo not shown) [OXYPHENBUTAZONE] | 2
CC(=O)O[C@H]1C(=O)[C@]2(C)C(O)C[C@H]3OC[C@@]3(OC(C)=O)[C@H]2[C@H](OC(=O)c2ccccc2)[C@]2(O)C[C@H](O)C(C)=C1C2(C)C (stereo partly shown) [NCGC00384655-01] | 2
Oc1cccc2c(O)nccc12 [1,5-Isoquinolinediol] | 3
Cl.NC(N)=NCCNS(=O)(=O)c1cccc2cnccc12 [HA-1004 hydrochloride] | 1
N#Cc1cc(-c2ccnc(Nc3ccc(N4CCOCC4)cc3)n2)ccc1OC1CCOCC1 [IKK epsilon-IN-1] | 2
CCCC1(C)C(C#N)(C#N)C1(C#N)C#N [CCG-2046] | 2
COc1ccc(-c2c(C)c(C(=O)NN3CCCCC3)nn2-c2ccc(Cl)cc2Cl)cc1 [NIDA-41020] | 2
CC1(C)CC[C@]2(C(=O)O[C@@H]3O[C@H](CO[C@@H]4O[C@H](CO)[C@@H](O)[C@H](O)[C@H]4O[C@@H]4O[C@H](CO)[C@H](O)[C@H](O)[C@H]4O)[C@@H](O)[C@H](O[C@@H]4O[C@H](CO)[C@@H](O)[C@H](O)[C@H]4O)[C@H]3O)CC[C@]3(C)C(=CCC4[C@@]5(C)CC[C@H](O[C@@H]6OC[C@@H](O)[C@H](O)[C@H]6O)[C@@](C)(C(=O)O)C5CC[C@]43C)[C@@H]2C1 (stereo partly shown) [NCGC00384798-01] | 4
COCCOc1ccc2c(c1)ncn2-c1ccc2cccc(N3CCC(N)CC3)c2n1 [CP-673451] | 4
CC[C@@](C)(Nc1ccnc(-c2c[nH]c3ncccc23)n1)C(=O)NCC(F)(F)F [Decernotinib] | 1
O=C(Nc1ccc(-c2ccncc2)cc1)N[C@H](CO)c1ccccc1 [AS 1892802] | 1
O=C(O)Cc1cc(I)c(Oc2cc(I)c(O)c(I)c2)c(I)c1 [TETRAC] | 1
